# Cleaved PARP in drug-treated melanoma cells

Source: doi:10.1371/journal.pone.0140310, primary screening data, rounded.

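Human melanoma cell lines in 1,536-well plates were treated with two drugs together for 72 h, then fixed, stained and imaged. The read-out is the fraction of cleaved-PARP-positive nuclei, in % of that fraction in the DMSO control; 200 means twice the control level of this apoptosis marker. Every drug was used at one fixed concentration, the higher of two screened. No replicate spread is given; individual values may be noisy. The marker varies much from line to line, for technical or biological reasons.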
An unselected part of the screen is shown.

Drug key:
GW9662: O=C(Nc1ccccc1)c1cc([N+](=O)[O-])ccc1Cl at 10 µM
SU6656: CN(C)S(=O)(=O)c1ccc2c(c1)/C(=C/c1cc3c([nH]1)CCCC3)C(=O)N2 at 2 µM
nilutamide: CC1(C)NC(=O)N(c2ccc([N+](=O)[O-])c(C(F)(F)F)c2)C1=O at 5 µM
sunitinib: CCN(CC)CCNC(=O)c1c(C)[nH]c(/C=C2\C(=O)Nc3ccc(F)cc32)c1C at 2 µM
GSK650394: O=C(O)c1ccc(-c2c[nH]c3ncc(-c4ccccc4)cc23)cc1C1CCCC1 at 0.8 µM
ENMD-2076: Cc1cc(Nc2cc(N3CCN(C)CC3)nc(/C=C/c3ccccc3)n2)n[nH]1 at 0.2 µM
dovitinib: CN1CCN(c2ccc3nc(-c4c(N)c5c(F)cccc5[nH]c4=O)[nH]c3c2)CC1 at 0.5 µM
GW441756: Cn1cc(/C=C2\C(=O)Nc3cccnc32)c2ccccc21 at 2 µM

With GW9662 + ENMD-2076 the screen read WM451Lu: 712; UACC-62: 151; WM3526: 138; SK-MEL-5: 39.4; IST-MEL1: 205.
With ENMD-2076 + nilutamide the screen read WM451Lu: 211; UACC-62: 161; WM3526: 86.3; SK-MEL-5: 63.4; IST-MEL1: 26.2.
With nilutamide + SU6656 the screen read WM451Lu: 70.6; UACC-62: 158; WM3526: 124; SK-MEL-5: 86.4; IST-MEL1: 251.
With nilutamide + sunitinib the screen read WM451Lu: 135; UACC-62: 103; WM3526: 403; SK-MEL-5: 169; IST-MEL1: 84.8.
With GSK650394 + dovitinib the screen read WM451Lu: 133; UACC-62: 95.1; WM3526: 155; SK-MEL-5: 71.7; IST-MEL1: 273.
With GSK650394 + sunitinib the screen read WM451Lu: 118; UACC-62: 109; WM3526: 170; SK-MEL-5: 376; IST-MEL1: 177.
With GW9662 + GW441756 the screen read WM451Lu: 59.7; UACC-62: 129; WM3526: 85.1; SK-MEL-5: 122; IST-MEL1: 52.8.
With GW9662 + dovitinib the screen read WM451Lu: 104; UACC-62: 163; WM3526: 127; SK-MEL-5: 49.7; IST-MEL1: 74.3.
With nilutamide + GW441756 the screen read WM451Lu: 112; UACC-62: 171; WM3526: 89.7; SK-MEL-5: 180; IST-MEL1: 41.6.
With GW9662 + GSK650394 the screen read WM451Lu: 94.2; UACC-62: 118; WM3526: 152; SK-MEL-5: 152; IST-MEL1: 76.8.
With SU6656 + dovitinib the screen read WM451Lu: 179; UACC-62: 84.0; WM3526: 496; SK-MEL-5: 284; IST-MEL1: 97.0.
With ENMD-2076 + GW441756 the screen read WM451Lu: 115; UACC-62: 112; WM3526: 116; SK-MEL-5: 127; IST-MEL1: 87.1.
With sunitinib + dovitinib the screen read WM451Lu: 51.1; UACC-62: 121; WM3526: 398; SK-MEL-5: 645; IST-MEL1: 85.2.
With GW441756 + SU6656 the screen read WM451Lu: 159; UACC-62: 208; WM3526: 108; SK-MEL-5: 58.1; IST-MEL1: 69.5.
With SU6656 + GSK650394 the screen read WM451Lu: 157; UACC-62: 134; WM3526: 195; SK-MEL-5: 394; IST-MEL1: 155.
With GSK650394 + GW441756 the screen read WM451Lu: 94.3; UACC-62: 92.9; WM3526: 129; SK-MEL-5: 97.6; IST-MEL1: 72.8.
With GSK650394 + ENMD-2076 the screen read WM451Lu: 56.1; UACC-62: 93.7; WM3526: 94.4; SK-MEL-5: 176; IST-MEL1: 189.
With SU6656 + ENMD-2076 the screen read WM451Lu: 81.0; UACC-62: 143; WM3526: 170; SK-MEL-5: 190; IST-MEL1: 120.
With sunitinib + SU6656 the screen read WM451Lu: 208; UACC-62: 99.5; WM3526: 324; SK-MEL-5: 329; IST-MEL1: 265.
With GW441756 + dovitinib the screen read WM451Lu: 186; UACC-62: 136; WM3526: 390; SK-MEL-5: 71.9; IST-MEL1: 237.
With ENMD-2076 + dovitinib the screen read WM451Lu: 115; UACC-62: 185; WM3526: 142; SK-MEL-5: 132; IST-MEL1: 83.2.

3 of the entries, repeated:

Combination,WM451Lu,UACC-62,WM3526,SK-MEL-5,IST-MEL1
GSK650394 + ENMD-2076,56.1,93.7,94.4,176,189
GSK650394 + GW441756,94.3,92.9,129,97.6,72.8
GW441756 + dovitinib,186,136,390,71.9,237